Assay results as given in patent US20230047208A1, “RNA Splicing Modulation” (The General Hospital Corporation, priority 2020, published 2023).
The source gives many values for each of these; only a part stands here.

Test system: wildtype (WT) human fibroblast cell lines
Test: Transcriptome-wide splicing by RNA sequencing (RNASeq), exon triplet PSI change;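 as to Effect: six WT fibroblast lines treated seven days versus DMSO vehicle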;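 as to T-PSI: T-PSI is average treated PSI after seven days of treatment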
Format: cell-based
Design: key to Effect: Exclusion; Inclusion; Unchanged
Details: seven days
Excerpt: FIG. 2A provides a representation of an exon triplet. Exon U is upstream of Exon X, which is upstream of Exon D. R1, R2 and R3 represent RNA sequencing (RNASeq) reads spanning the regions between two adjacent exons. UI1, I1X, XI2 and I2D are four regions flanking the four splice sites of the exon-triplet. Each flanking region consists of 25 exonic base pairs and 75 intronic base pairs.
FIG. 2B provides a volcano plot showing the ψ (PSI: Percent Spliced-In) changes in splicing after treatment with Compound (I). Each dot represents one of the 161,097 expressed exon triplets in human fibroblasts. The x axis represents the ψ changes after treatment and the y axis represents the False Discovery Rate (FDR) (log 10 transformed). […] The horizontal dashed line indicates an FDR of 0.1. The dots on the right side of the right vertical dashed line and above the horizontal dashed line represent the exon-triplets with an increase for Exon X inclusion (Δψ≥0.1 and FDR<0.1) while the dots on left side of the left vertical dashed line and above the horizontal dashed line represent an increase for Exon X exclusion (Δψ≤−0.1 and FDR<0.1). Black dots in-between the two vertical dashed lines represent exon-triplets unchanged from the treatment.
In some aspects, analysis is performed on data derived from the assay to measure the magnitude of splicing to determine the amount of exons spliced into an mRNA transcript that is produced in the presence of Compound (I) relative to the amount in the absence of Compound (I) or presence of a negative control. In a preferred aspect, the method utilized is calculation of change in Percent Spliced In (ΔPSI). […] The ΔPSI value is derived from the formula: […]
The values for “a” and “b” represent the number of reads supporting the probability for potential inclusion or exclusion of an exon in an RNA transcript. The “a” value is derived from the number of reads within an exon triplet covering, in 5′ to 3′ order: the last few bases (>1 nucleotide) of an upstream exon operably linked to the first few bases (>1 nucleotide) of a middle exon. The “b” value is derived from the number of reads within an exon triplet covering, in 5′ to 3′ order: the last few bases (>1 nucleotide) of the middle exon operably linked to the first few bases (>1 nucleotide) of a downstream exon. The number of reads will indicate whether the splice junction of a middle exon has been identified as potentially having a CNN Motif(s) by the CNN Model described herein, wherein the inclusion or exclusion of the middle exon may be modulated in the presence of Compound (I) to produce one or more mature RNA isoforms from the gene transcript. The value for “c” represents the number of reads supporting the exclusion of the middle exon.
The effect on splicing modulation and corresponding splice differences toward exon inclusion or exclusion was determined by counting the RNASeq reads covering two splice junctions of exon triplets (three consecutive exons: Exon U, Exon X, Exon D) and the corresponding intervening introns, then comparing the change in Percent Spliced In (ΔPSI or Δψ) of the middle exon (Exon X) after treatment (as shown in FIG. 2A)^52,53. 934 exon triplets were identified showing differential middle exon inclusion or exclusion in response to Compound (I) treatment. Of these, 254 were exon inclusion events (Δψ≥0.1 and FDR<0.1) and 680 were exon exclusion events (Δψ≤−0.1 and FDR<0.1) (as shown in FIG. 2B). […] The splicing results were evaluated by RT-PCR in independent replicate experiments, confirming all the calculated Δψ values. […]

[1] = SH3D19 Exon 152065372-152065440
[2] = SLC9B2 Exon 103949904-103950040
[3] = SLC15A4 Exon 129294488-129294598
[4] = SLC22A17 Exon 23816723-23816940
[5] = SLC25A17 Exon 41188529-41188680
[6] = SLC25A17 Exon 41190518-41190584
[7] = SLC25A32 Exon 104417004-104417089
[8] = SLC25A36 Exon 140685776-140685878
[9] = SLC25A36 Exon 140685842-140685878
[10] = SLC35A3 Exon 100440527-100440625
[11] = SLC37A3 Exon 140045669-140045770

Compound: Clc1nc(NCc2ccncc2)c2cc[nH]c2n1 [Compound (I), 2-chloro-N-(pyridin-4-ylmethyl)-7H-pyrrolo[2,3-d]pyrimidin-4-amine]
- T-PSI (SETD5 Exon 9476274-9476314): 0.138
- ΔPSI (SETD5 Exon 9476274-9476314): −0.190
- Effect (SETX Exon 135144790-135144876): Inc
- T-PSI (SETX Exon 135144790-135144876): 0.466
- ΔPSI (SETX Exon 135144790-135144876): 0.150
- Effect (SEZ6L2 Exon 29884026-29884064): Unc
- T-PSI (SEZ6L2 Exon 29884026-29884064): 0.582
- ΔPSI (SEZ6L2 Exon 29884026-29884064): 0.010
- Effect (SFXN4 Exon 120920567-120920593): Exc
- T-PSI (SFXN4 Exon 120920567-120920593): 0.812
- ΔPSI (SFXN4 Exon 120920567-120920593): −0.188
- Effect (SGSM2 Exon 2270565-2270699): Unc
- T-PSI (SGSM2 Exon 2270565-2270699): 0.317
- ΔPSI (SGSM2 Exon 2270565-2270699): 0.005
- Effect (SGSM3 Exon 40797597-40797679): Exc
- T-PSI (SGSM3 Exon 40797597-40797679): 0.494
- ΔPSI (SGSM3 Exon 40797597-40797679): −0.290
- Effect [1]: Inc
- T-PSI [1]: 0.620
- ΔPSI [1]: 0.143
- Effect (SHMT2 Exon 57625264-57625343): Exc
- T-PSI (SHMT2 Exon 57625264-57625343): 0.754
- ΔPSI (SHMT2 Exon 57625264-57625343): −0.138
- Effect (SIKE1 Exon 115322731-115322836): Unc
- T-PSI (SIKE1 Exon 115322731-115322836): 0.891
- ΔPSI (SIKE1 Exon 115322731-115322836): −0.005
- Effect (SIPA1L1 Exon 71867511-71867635): Exc
- T-PSI (SIPA1L1 Exon 71867511-71867635): 0.000
- ΔPSI (SIPA1L1 Exon 71867511-71867635): −0.241
- Effect (SIPA1L1 Exon 71880665-71880731): Inc
- T-PSI (SIPA1L1 Exon 71880665-71880731): 0.986
- ΔPSI (SIPA1L1 Exon 71880665-71880731): 0.377
- Effect (SLAIN2 Exon 48396593-48396670): Unc
- T-PSI (SLAIN2 Exon 48396593-48396670): 0.717
- ΔPSI (SLAIN2 Exon 48396593-48396670): −0.009
- Effect (SLC4A7 Exon 27450847-27451021): Exc
- T-PSI (SLC4A7 Exon 27450847-27451021): 0.378
- ΔPSI (SLC4A7 Exon 27450847-27451021): −0.426
- Effect (SLC5A6 Exon 27429351-27429402): Exc
- T-PSI (SLC5A6 Exon 27429351-27429402): 0.763
- ΔPSI (SLC5A6 Exon 27429351-27429402): −0.174
- Effect (SLC7A6 Exon 68307721-68307807): Exc
- T-PSI (SLC7A6 Exon 68307721-68307807): 0.312
- ΔPSI (SLC7A6 Exon 68307721-68307807): −0.230
- Effect (SLC7A6 Exon 68307725-68307807): Exc
- T-PSI (SLC7A6 Exon 68307725-68307807): 0.224
- ΔPSI (SLC7A6 Exon 68307725-68307807): −0.205
- Effect [2]: Exc
- T-PSI [2]: 0.553
- ΔPSI [2]: −0.322
- Effect [3]: Inc
- T-PSI [3]: 0.982
- ΔPSI [3]: 0.113
- Effect [4]: Exc
- T-PSI [4]: 0.684
- ΔPSI [4]: −0.171
- Effect [5]: Exc
- T-PSI [5]: 0.772
- ΔPSI [5]: −0.197
- Effect [6]: Exc
- T-PSI [6]: 0.769
- ΔPSI [6]: −0.197
- Effect [7]: Exc
- T-PSI [7]: 0.801
- ΔPSI [7]: −0.134
- Effect [8]: Exc
- T-PSI [8]: 0.096
- ΔPSI [8]: −0.230
- Effect [9]: Exc
- T-PSI [9]: 0.073
- ΔPSI [9]: −0.201
- Effect (SLC30A6 Exon 32422413-32422461): Unc
- T-PSI (SLC30A6 Exon 32422413-32422461): 0.790
- ΔPSI (SLC30A6 Exon 32422413-32422461): 0.009
- Effect (SLC35A1 Exon 88187080-88187257): Exc
- T-PSI (SLC35A1 Exon 88187080-88187257): 0.760
- ΔPSI (SLC35A1 Exon 88187080-88187257): −0.194
- Effect [10]: Inc
- T-PSI [10]: 0.613
- ΔPSI [10]: 0.237
- Effect (SLC35D2 Exon 99084280-99084362): Exc
- T-PSI (SLC35D2 Exon 99084280-99084362): 0.841
- ΔPSI (SLC35D2 Exon 99084280-99084362): −0.136
- Effect [11]: Exc
- T-PSI [11]: 0.548
- ΔPSI [11]: −0.241
- Effect (SLC38A2 Exon 46764295-46764410): Exc
- T-PSI (SLC38A2 Exon 46764295-46764410): 0.748
- ΔPSI (SLC38A2 Exon 46764295-46764410): −0.154
- Effect (SLC38A6 Exon 61510168-61510221): Exc
- T-PSI (SLC38A6 Exon 61510168-61510221): 0.653
- ΔPSI (SLC38A6 Exon 61510168-61510221): −0.212
- Effect (SLC38A6 Exon 61514869-61515015): Inc
- T-PSI (SLC38A6 Exon 61514869-61515015): 0.190
- ΔPSI (SLC38A6 Exon 61514869-61515015): 0.157
- Effect (SLC38A6 Exon 61517230-61517354): Exc
- T-PSI (SLC38A6 Exon 61517230-61517354): 0.717
- ΔPSI (SLC38A6 Exon 61517230-61517354): −0.271
- Effect (SLC38A9 Exon 54998567-54998722): Unc
- T-PSI (SLC38A9 Exon 54998567-54998722): 0.116
- ΔPSI (SLC38A9 Exon 54998567-54998722): −0.009
- Effect (SLC39A9 Exon 69908786-69908983): Unc
- T-PSI (SLC39A9 Exon 69908786-69908983): 0.883
- ΔPSI (SLC39A9 Exon 69908786-69908983): 0.004
- Effect (SLFN11 Exon 33693966-33694062): Unc
- T-PSI (SLFN11 Exon 33693966-33694062): 0.836
- ΔPSI (SLFN11 Exon 33693966-33694062): −0.007
- Effect (SLFN11 Exon 33693966-33694082): Unc
- T-PSI (SLFN11 Exon 33693966-33694082): 0.836
- ΔPSI (SLFN11 Exon 33693966-33694082): −0.006
- Effect (SLIT2 Exon 20550111-20550182): Exc
- T-PSI (SLIT2 Exon 20550111-20550182): 0.748
- ΔPSI (SLIT2 Exon 20550111-20550182): −0.163
- Effect (SLMAP Exon 57857363-57857425): Exc
- T-PSI (SLMAP Exon 57857363-57857425): 0.339
- ΔPSI (SLMAP Exon 57857363-57857425): −0.267
